A short description of the data set: peptide synthesis. The settings on record: whole synthesis, RPHPLC.

Take “K(HHHK)4CSSC (KHHHKHHHKHHHKHHHKCSSC; branched peptide)”: the “purity (crude or final not stated)” value is 90.0%.

Values taken from patent US20210162067A1 (SIRNAOMICS, INC., priority 2018, published 2021).
